# Test results: the supplement of paper PMC8728848
# The other results are listed elsewhere or left out.
# B1: OS9 (Arabidopsis thaliana) (protein)
# chain: MRGSHHHHHHGMASMTGGQQMGRDLYDDDDKSRLQIFPAHLVGTFSRNNREPKYKIEFLPEDSPFHPGDNLESMVMLDKHGNRFLCYLPKEEKATSGWTSSQQNISTVMMETQQLVKLKTPDELLQPLSEKCLFRQEGWWSYEFCHQKYVRQLHVEDENKIVQEFFLGTFDPEATAAFNQTVSDASTDASQRYHSHVYTNGTTCDLTGSPREVEVRFVCAETRAMVTSITELSTCKYALTVQCPTLCKHPLFQLEKPVSHTIHCNAIPVEEDATRNKEEQAVDESPKMIADS
# What was measured:
# Assay in all cases: glycan array binding signal (z-score within array); higher = stronger binding
# Settings in all cases: glycan notation: IUPAC condensed, linker removed
# [1] = target: Fuc(a1-3)[Gal3S(b1-4)]GlcNAc6S
# Outline: (§1)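 Glycan array data came from 3228 arrays in the Consortium for Functional Glycomics database, and only arrays with an available protein sequence were kept. Glycan names were put into IUPAC-condensed notation, and columns mapping to the same glycan were averaged. The binding signal is a within-array Z-score, averaged across arrays of one protein sequence run at different concentrations or buffers and across linkers. A negative Z-score can be read as non-binding.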
# [2] = target: Fuc(a1-3)[GalNAc(b1-4)]GlcNAc
# Outline: as §1
# [3] = target: Fuc(a1-3)[GalNAc(b1-4)]GlcNAc6S
# Outline: as §1
# Fuc(a1-4)GlcNAc = target: Fuc(a1-4)GlcNAc
# Outline: as §1
# Fuc(b1-3)GlcNAc = target: Fuc(b1-3)GlcNAc
# Outline: as §1
# Gal(a1-2)Gal = target: Gal(a1-2)Gal
# Outline: as §1
# Gal(a1-3)Gal = target: Gal(a1-3)Gal
# Outline: as §1
# Gal(a1-3)Gal(b1-3)GlcNAc = target: Gal(a1-3)Gal(b1-3)GlcNAc
# Outline: as §1
# [4] = target: Gal(a1-3)Gal(b1-3)GlcNAc(b1-2)Man
# Outline: as §1
# [5] = target: Gal(a1-3)Gal(b1-3)GlcNAc(b1-2)Man(a1-3)[Gal(a1-3)Gal(b1-3)GlcNAc(b1-2)Man(a1-6)]Man(b1-4)GlcNAc(b1-4)GlcNAc
# Outline: as §1
# [6] = target: Gal(a1-3)Gal(b1-3)GlcNAc(b1-3)GalNAc
# Outline: as §1
# [7] = target: Gal(a1-3)Gal(b1-3)GlcNAc(b1-6)GalNAc
# Outline: as §1
# [8] = target: Gal(a1-3)Gal(b1-3)[Fuc(a1-4)]GlcNAc(b1-2)Man(a1-3)[Gal(a1-3)Gal(b1-3)[Fuc(a1-4)]GlcNAc(b1-2)Man(a1-6)]Man(b1-4)GlcNAc(b1-4)GlcNAc
# Outline: as §1
# Gal(a1-3)Gal(b1-4)Glc = target: Gal(a1-3)Gal(b1-4)Glc
# Outline: as §1
# Gal(a1-3)Gal(b1-4)GlcNAc = target: Gal(a1-3)Gal(b1-4)GlcNAc
# Outline: as §1
# [9] = target: Gal(a1-3)Gal(b1-4)GlcNAc(b1-2)Man
# Outline: as §1
# [10] = target: Gal(a1-3)Gal(b1-4)GlcNAc(b1-2)Man(a1-3)[Gal(a1-3)Gal(b1-4)GlcNAc(b1-2)Man(a1-6)]Man(b1-4)GlcNAc(b1-4)GlcNAc
# Outline: as §1
# [11] = target: Gal(a1-3)Gal(b1-4)GlcNAc(b1-3)GalNAc
# Outline: as §1
# [12] = target: Gal(a1-3)Gal(b1-4)GlcNAc(b1-6)GalNAc
# Outline: as §1
# [13] = target: Gal(a1-3)Gal(b1-4)[Fuc(a1-3)]GlcNAc
# Outline: as §1
# [14] = target: Gal(a1-3)Gal(b1-4)[Fuc(a1-3)]GlcNAc(b1-2)Man(a1-3)[Gal(a1-3)Gal(b1-4)[Fuc(a1-3)]GlcNAc(b1-2)Man(a1-6)]Man(b1-4)GlcNAc(b1-4)GlcNAc
# Outline: as §1
# Gal(a1-3)GalNAc = target: Gal(a1-3)GalNAc
# Outline: as §1
# [15] = target: Gal(a1-3)[Gal(a1-4)]Gal(b1-4)GlcNAc
# Outline: as §1
# [16] = target: Gal(a1-4)Gal(b1-3)GlcNAc(b1-2)Man(a1-3)[Gal(a1-4)Gal(b1-3)GlcNAc(b1-2)Man(a1-6)]Man(b1-4)GlcNAc(b1-4)GlcNAc
# Outline: as §1
# Gal(a1-4)Gal(b1-4)Glc = target: Gal(a1-4)Gal(b1-4)Glc
# Outline: as §1
# Gal(a1-4)Gal(b1-4)GlcNAc = target: Gal(a1-4)Gal(b1-4)GlcNAc
# Outline: as §1
# [17] = target: Gal(a1-4)Gal(b1-4)GlcNAc(b1-2)Man(a1-3)[Gal(a1-4)Gal(b1-4)GlcNAc(b1-2)Man(a1-6)]Man(b1-4)GlcNAc(b1-4)GlcNAc
# Outline: as §1
# [18] = target: Gal(a1-4)Gal(b1-4)GlcNAc(b1-3)Gal(b1-4)Glc
# Outline: as §1
# Gal(a1-4)GlcNAc = target: Gal(a1-4)GlcNAc
# Outline: as §1
# Gal(a1-6)Glc = target: Gal(a1-6)Glc
# Outline: as §1
# Gal(b1-2)Gal = target: Gal(b1-2)Gal
# Outline: as §1
# Gal(b1-3)Gal = target: Gal(b1-3)Gal
# Outline: as §1
# Gal(b1-3)Gal(b1-4)GlcNAc = target: Gal(b1-3)Gal(b1-4)GlcNAc
# Outline: as §1
# Gal(b1-3)GalNAc = target: Gal(b1-3)GalNAc
# Outline: as §1
# [19] = target: Gal(b1-3)GalNAc(a1-3)[Fuc(a1-2)]Gal(b1-4)Glc
# Outline: as §1
# [20] = target: Gal(b1-3)GalNAc(a1-3)[Fuc(a1-2)]Gal(b1-4)GlcNAc
# Outline: as §1
# Gal(b1-3)GalNAc(b1-3)Gal = target: Gal(b1-3)GalNAc(b1-3)Gal
# Outline: as §1
binder,measurement,setting,value
B1,glycan array binding signal (z-score),[1],-0.706
same,glycan array binding signal (z-score),[2],0.056
same,glycan array binding signal (z-score),[3],-0.395
same,glycan array binding signal (z-score),Fuc(a1-4)GlcNAc,-0.533
same,glycan array binding signal (z-score),Fuc(b1-3)GlcNAc,0.055
same,glycan array binding signal (z-score),Gal(a1-2)Gal,1.15
same,glycan array binding signal (z-score),Gal(a1-3)Gal,-0.357
same,glycan array binding signal (z-score),Gal(a1-3)Gal(b1-3)GlcNAc,-0.937
same,glycan array binding signal (z-score),[4],-0.727
same,glycan array binding signal (z-score),[5],2.24
same,glycan array binding signal (z-score),[6],0.148
same,glycan array binding signal (z-score),[7],-0.704
same,glycan array binding signal (z-score),[8],-0.059
same,glycan array binding signal (z-score),Gal(a1-3)Gal(b1-4)Glc,0.213
same,glycan array binding signal (z-score),Gal(a1-3)Gal(b1-4)GlcNAc,-0.724
same,glycan array binding signal (z-score),[9],0.108
same,glycan array binding signal (z-score),[10],1.3
same,glycan array binding signal (z-score),[11],0.445
same,glycan array binding signal (z-score),[12],0.243
same,glycan array binding signal (z-score),[13],-0.188
same,glycan array binding signal (z-score),[14],0.806
same,glycan array binding signal (z-score),Gal(a1-3)GalNAc,0.056
same,glycan array binding signal (z-score),[15],-0.966
same,glycan array binding signal (z-score),[16],-0.507
same,glycan array binding signal (z-score),Gal(a1-4)Gal(b1-4)Glc,2.7
same,glycan array binding signal (z-score),Gal(a1-4)Gal(b1-4)GlcNAc,-0.809
same,glycan array binding signal (z-score),[17],0.345
same,glycan array binding signal (z-score),[18],-0.893
same,glycan array binding signal (z-score),Gal(a1-4)GlcNAc,0.179
same,glycan array binding signal (z-score),Gal(a1-6)Glc,-0.61
same,glycan array binding signal (z-score),Gal(b1-2)Gal,-0.865
same,glycan array binding signal (z-score),Gal(b1-3)Gal,1.8
same,glycan array binding signal (z-score),Gal(b1-3)Gal(b1-4)GlcNAc,-0.25
same,glycan array binding signal (z-score),Gal(b1-3)GalNAc,-0.097
same,glycan array binding signal (z-score),[19],-0.114
same,glycan array binding signal (z-score),[20],-0.716
same,glycan array binding signal (z-score),Gal(b1-3)GalNAc(b1-3)Gal,3.02

# A second format for some results above.
binder | measurement | setting | value
B1 | glycan array binding signal (z-score) | [13] | -0.188
same | glycan array binding signal (z-score) | [14] | 0.806
